The supplement of paper PMC9233669
Variants at the floor of the assay are shown more often than the library holds them.

Key:
biotinyl-Trp-oxazolone = assay: self-aminoacylation, catalytic enhancement (BWO) (fold over background); higher = more active; k-Seq, kA / k0A0; sequences stand for … in GGGAAUGGAUCCACAUCUACGAAUUC…UUCACUGCAGACUUGACGAAGCUG
Outline: (§1)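 Each biotinyl-aminoacyl-oxazolone, at 2–1250 μM, was incubated with mutagenized RNA pools (0.43 μM) carrying a 21-nt variable region. The 50 μL reactions contained HEPES/NaCl/KCl/MgCl2/CaCl2 buffer with 5% acetonitrile at pH 6.9–7.0 and ran for 90 minutes at room temperature. After streptavidin capture, RNA was measured by qPCR in triplicate and by Illumina sequencing, and catalytic enhancement was calculated as median kA over the uncatalyzed rate from a pseudo-first-order fit of per-sequence fraction reacted.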

biotinyl-Leu-oxazolone = assay: self-aminoacylation, catalytic enhancement (BLO) (fold over background); higher = more active; k-Seq, kA / k0A0; sequences stand for … in GGGAAUGGAUCCACAUCUACGAAUUC…UUCACUGCAGACUUGACGAAGCUG
Outline: as §1

biotinyl-Val-oxazolone = assay: self-aminoacylation, catalytic enhancement (BVO) (fold over background); higher = more active; k-Seq, kA / k0A0; sequences stand for … in GGGAAUGGAUCCACAUCUACGAAUUC…UUCACUGCAGACUUGACGAAGCUG
Outline: as §1

biotinyl-Ile-oxazolone = assay: self-aminoacylation, catalytic enhancement (BIO) (fold over background); higher = more active; k-Seq, kA / k0A0; sequences stand for … in GGGAAUGGAUCCACAUCUACGAAUUC…UUCACUGCAGACUUGACGAAGCUG
Outline: as §1

biotinyl-Met-oxazolone = assay: self-aminoacylation, catalytic enhancement (BMO) (fold over background); higher = more active; k-Seq, kA / k0A0; sequences stand for … in GGGAAUGGAUCCACAUCUACGAAUUC…UUCACUGCAGACUUGACGAAGCUG
Outline: as §1

biotinyl-Phe-oxazolone = assay: self-aminoacylation, catalytic enhancement (BFO) (fold over background); higher = more active; k-Seq, kA / k0A0; sequences stand for … in GGGAAUGGAUCCACAUCUACGAAUUC…UUCACUGCAGACUUGACGAAGCUG
Outline: as §1

Sequence	self-aminoacylation (biotinyl-Trp-oxazolone)	self-aminoacylation (biotinyl-Leu-oxazolone)	self-aminoacylation (biotinyl-Val-oxazolone)	self-aminoacylation (biotinyl-Ile-oxazolone)	self-aminoacylation (biotinyl-Met-oxazolone)	self-aminoacylation (biotinyl-Phe-oxazolone)
CUACUUCAAACAAUCGUUCUA [Fam1A.1 aminoacylation ribozyme variant]	0.631	0.559	0.801	0.582	0.545	1.08
CUACUUCAAACAAUGAGUCUG [Fam1A.1 aminoacylation ribozyme variant]	0.459	0.695	0.753	0.713	0.8	1.09
CUACUUCAAACAAUGGGUCAG [Fam1A.1 aminoacylation ribozyme variant]	0.5	0.651	0.589	0.6	0.648	0.92
CUACUUCAAACAAUGGGUCCG [Fam1A.1 aminoacylation ribozyme variant]	1.01	1.01	0.896	0.975	0.85	0.542
CUACUUCAAACAAUGGGUCUU [Fam1A.1 aminoacylation ribozyme variant]	1.14	0.7	0.956	0.964	0.843	0.668
CUACUUCAAACAAUUGCUCUG [Fam1A.1 aminoacylation ribozyme variant]	0.814	0.613	0.681	0.746	0.582	0.695
CUACUUCAAACAAUUGGGCUG [Fam1A.1 aminoacylation ribozyme variant]	1.02	1.18	1.24	1.34	1	0.977
CUACUUCAAACAAUUGGUCUC [Fam1A.1 aminoacylation ribozyme variant]	0.818	0.601	0.695	0.71	0.656	1.2
CUACUUCAAACAAUUGGUUUG [Fam1A.1 aminoacylation ribozyme variant]	0.708	0.721	0.7	0.757	0.676	0.803
CUACUUCAAACACACGGUCUG [Fam1A.1 aminoacylation ribozyme variant]	0.995	0.894	0.853	0.967	0.715	0.72
CUACUUCAAACACUCGGUAUG [Fam1A.1 aminoacylation ribozyme variant]	1.04	0.711	1.05	0.931	0.77	0.66
CUACUUCAAACACUCGGUCCG [Fam1A.1 aminoacylation ribozyme variant]	0.646	1.08	1.22	1.12	1.31	0.578
CUACUUCAAACACUCGGUCUA [Fam1A.1 aminoacylation ribozyme variant]	0.738	0.933	1.08	1.09	0.819	0.843
CUACUUCAAACAGUAGGUCUG [Fam1A.1 aminoacylation ribozyme variant]	0.443	0.841	0.921	0.895	0.83	0.843
CUACUUCAAACAGUCGGUCAG [Fam1A.1 aminoacylation ribozyme variant]	0.652	0.595	0.508	0.571	0.531	0.663
CUACUUCAAACAGUCGGUGUG [Fam1A.1 aminoacylation ribozyme variant]	1.08	1.58	1.05	1.32	1.63	0.935
CUACUUCAAACGAUCGAUCUG [Fam1A.1 aminoacylation ribozyme variant]	0.354	0.485	0.584	0.55	0.47	0.425
CUACUUCAAACGAUCGGACUG [Fam1A.1 aminoacylation ribozyme variant]	0.492	0.631	0.697	0.632	0.49	0.61
CUACUUCAAACGAUCGGUCUC [Fam1A.1 aminoacylation ribozyme variant]	0.792	0.611	0.659	0.682	0.769	1.01
CUACUUCAAACGAUCGGUGUG [Fam1A.1 aminoacylation ribozyme variant]	0.792	0.933	0.833	0.847	0.937	0.631
CUACUUCAAACGAUUGGUCUG [Fam1A.1 aminoacylation ribozyme variant]	0.321	0.703	0.775	0.766	0.714	0.791

Sequence	self-aminoacylation (biotinyl-Trp-oxazolone)	self-aminoacylation (biotinyl-Leu-oxazolone)	self-aminoacylation (biotinyl-Val-oxazolone)	self-aminoacylation (biotinyl-Ile-oxazolone)	self-aminoacylation (biotinyl-Met-oxazolone)	self-aminoacylation (biotinyl-Phe-oxazolone)
CUACUUCAAAUAACCGGUCUG [Fam1A.1 aminoacylation ribozyme variant]	0.594	0.596	0.68	0.745	0.429	0.628
CUACUUCAAAUAAUCGGUCUU [Fam1A.1 aminoacylation ribozyme variant]	5.86	0.941	0.934	0.974	1.04	9.54
CUACUUCAAAUAGUCGGUCUG [Fam1A.1 aminoacylation ribozyme variant]	0.536	0.769	0.821	0.832	0.874	0.487
CUACUUCAAAUAUUCGGUCUG [Fam1A.1 aminoacylation ribozyme variant]	1.26	1.12	1.26	1.19	1.3	0.861
CUACUUCAACCAAUCAGUCUG [Fam1A.1 aminoacylation ribozyme variant]	5.54	0.794	0.701	0.747	0.541	13.9
CUACUUCAACCAAUCCGUCUG [Fam1A.1 aminoacylation ribozyme variant]	1.08	0.926	1.1	0.941	0.813	0.984
CUACUUCAACCAAUCGUUCUG [Fam1A.1 aminoacylation ribozyme variant]	0.831	0.468	0.655	0.583	0.499	0.974
CUACUUCAAGCAAUAGGUCUG [Fam1A.1 aminoacylation ribozyme variant]	0.918	0.771	0.904	0.861	0.763	1.25
CUACUUCAAUCAAGCGGUCUG [Fam1A.1 aminoacylation ribozyme variant]	0.579	0.716	0.802	0.818	0.875	0.561
CUACUUCAAUCAAUCGAUCUG [Fam1A.1 aminoacylation ribozyme variant]	0.772	0.545	0.627	0.746	0.613	1.37
CUACUUCACACAAGCGGUCUG [Fam1A.1 aminoacylation ribozyme variant]	1.01	0.817	0.993	1.03	0.816	0.75
CUACUUCAUACAAGCGGUCUG [Fam1A.1 aminoacylation ribozyme variant]	0.774	0.734	0.942	0.791	0.734	1.07
CUACUUCAUACAAUCGGUCAG [Fam1A.1 aminoacylation ribozyme variant]	0.721	0.662	0.699	0.738	0.644	0.985
CUACUUCAUACCAUCGGUCUG [Fam1A.1 aminoacylation ribozyme variant]	0.473	0.534	0.775	0.861	0.651	0.796
CUACUUCCAACAACCGGUCUG [Fam1A.1 aminoacylation ribozyme variant]	0.931	0.797	0.66	0.863	0.881	0.667
CUACUUCCAACAAUCGGACUG [Fam1A.1 aminoacylation ribozyme variant]	0.607	0.714	0.791	0.818	0.693	0.62
CUACUUCCAACAAUCGGCCUG [Fam1A.1 aminoacylation ribozyme variant]	1.46	1.27	1.5	1.64	1.48	0.988
CUACUUCCAACAAUCGGUCCG [Fam1A.1 aminoacylation ribozyme variant]	0.8	0.839	0.773	0.836	0.865	1.43
CUACUUCGAACAAUCGGUCGG [Fam1A.1 aminoacylation ribozyme variant]	0.974	1.41	0.922	1.02	1.34	2.37
CUACUUCGAACAGUCGGUCUG [Fam1A.1 aminoacylation ribozyme variant]	0.71	0.98	0.796	0.799	0.742	0.433
CUACUUCUAAAAAUCGGUCUG [Fam1A.1 aminoacylation ribozyme variant]	0.523	0.657	0.694	0.669	0.738	0.482
